For 1 molecule, binding results are on record in PMC9262907, “Modulating mitofusins to control mitochondrial function and signaling” (Nature Communications, 2022).

These are yes or no findings as the source states them, for the method shown. Some binding calls cover weakened binding; strength is not graded here. Tags and fused reporters may be left off the sequences shown.

The target in this assay is mitofusin-2 (MFN2) of MEF mitochondria (mouse (endogenous in MEFs)) (UniProt Q80U63). Description: native gel or EMSA; BN-PAGE of digitonin lysates of mitochondria isolated from MEFs, incubated with 2 mM GTP at 37 °C for 30 min (also with 10 μM MASM7 or 40 μM MFI8); blot with anti-MFN2.

B1: mitofusin-2 (MFN2) of MEF mitochondria (natural protein, mouse (endogenous in MEFs), UniProt Q80U63 1-757, looked up)
chain: MSLLFSRCNSIVTVKKDKRHMAEVNASPLKHFVTAKKKINGIFEQLGAYIQESASFLEDTHRNTELDPVTTEEQVLDVKGYLSKVRGISEVLARRHMKVAFFGRTSNGKSTVINAMLWDKVLPSGIGHTTNCFLRVGGTDGHEAFLLTEGSEEKKSVKTVNQLAHALHQDEQLHAGSMVSVMWPNSKCPLLKDDLVLMDSPGIDVTTELDSWIDKFCLDADVFVLVANSESTLMQTEKQFFHKVSERLSRPNIFILNNRWDASASEPEYMEEVRRQHMERCTSFLVDELGVVDRAQAGDRIFFVSAKEVLSARVQKAQGMPEGGGALAEGFQVRMFEFQNFERQFEECISQSAVKTKFEQHTVRAKQIAEAVRLIMDSLHIAAQEQRVYCLEMREERQDRLRFIDKQLELLAQDYKLRIKQITEEVERQVSTAMAEEIRRLSVLVDEYQMDFHPSPVVLKVYKNELHRHIEEGLGRNLSDRCSTAIASSLQTMQQDMIDGLKPLLPVSMRNQIDMLVPRQCFSLSYDLNCDKLCADFQEDIEFHFSLGWTMLVNRFLGPKNSRRALLGYSDQVQRPLPLTPANPSMPPLPQSSLTQEELMVSMVTGLASLTSRTSMGILVVGGVVWKAVGWRLIALSFGLYGLLYVYERLTWTTKAKERAFKRQFVEYASEKLQLIISYTGSNCSHQVQQELSGTFAHLCQQVDITRDNLEQEIAAMNKKVEALDSLQSRAKLLRNKAGWLDSELNMFTHQYLQPSR
notes: mitofusin-2 (MFN2), endogenous in mouse embryonic fibroblasts, detected with an anti-MFN2 antibody; source: endogenous, mitochondria isolated from MEFs, digitonin lysate
As for B1, the binding entry is “binds”.
